Measurements as given in paper PMC6179991.
No constants are given. Whether binding was seen depends on the method and setting. In cells and extracts the contact can be indirect. A result given as binding can be weak or reduced; the word gives no strength. Where a sequence is shown, tags or fusion partners need not be part of it.

Target: T1, Mouse Sirt1-FLAG-HA (Sirtuin 1) (mouse) (UniProt Q923E4)
T1 sequence: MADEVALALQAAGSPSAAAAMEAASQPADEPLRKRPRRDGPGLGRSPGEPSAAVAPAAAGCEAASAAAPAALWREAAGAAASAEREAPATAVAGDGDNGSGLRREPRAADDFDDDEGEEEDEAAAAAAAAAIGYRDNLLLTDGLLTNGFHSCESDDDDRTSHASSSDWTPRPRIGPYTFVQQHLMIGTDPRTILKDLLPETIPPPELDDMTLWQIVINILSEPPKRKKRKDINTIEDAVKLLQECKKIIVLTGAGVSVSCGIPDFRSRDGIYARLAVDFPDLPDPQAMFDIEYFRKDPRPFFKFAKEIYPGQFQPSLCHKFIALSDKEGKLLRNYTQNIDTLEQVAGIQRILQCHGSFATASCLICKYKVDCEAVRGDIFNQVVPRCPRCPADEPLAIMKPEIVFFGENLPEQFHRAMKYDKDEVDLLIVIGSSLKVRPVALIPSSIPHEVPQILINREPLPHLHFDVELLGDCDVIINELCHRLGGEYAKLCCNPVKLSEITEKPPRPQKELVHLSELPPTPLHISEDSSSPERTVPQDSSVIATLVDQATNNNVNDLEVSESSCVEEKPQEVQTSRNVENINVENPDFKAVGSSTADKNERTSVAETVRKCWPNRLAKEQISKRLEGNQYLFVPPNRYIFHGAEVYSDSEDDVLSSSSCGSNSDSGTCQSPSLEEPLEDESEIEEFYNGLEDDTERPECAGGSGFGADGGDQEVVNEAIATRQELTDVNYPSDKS
Assay: co-IP; HEK293T cells transfected with pcDNA3.1-rEED-V5-His, LVI-Flag-HA-mSirt1 or both; lysis in 25 mM Tris pH 7.4, 150 mM NaCl, 1 mM EDTA, 1 mM EGTA, 1% Triton X-100; immunoprecipitation with V5 or HA antibody and protein A agarose overnight at 4 °C; blots probed for V5 or HA (reciprocal)

- binding: binds
Substance: rat EED-V5-His (pcDNA3.1-rEED-V5-His) (from UniProt B5DF02)
